Reference: PubChem BioAssay AID540276 (National Center for Advancing Translational Sciences (NCATS), 2011)
Hit rate of the full screen: of about 300,000 compounds, about 5,400 (1.8%) were called active. Inconclusive means that the source gave no clear call. Such entries were picked first, then a sample of the others. Calls follow the shape of the full dose curve; tested in HEK293 cells. Potencies of inconclusive entries are doubtful fits and often do not repeat.

Test: qHTS for inhibitors of binding or entry into cells for Marburg Virus
Conditions: Marburg virus pseudotyped entry inhibition, cell reporter; activity change, negative = inhibition: at 37.8 µM (top of the series) unless noted
% is scaled to controls: 0 for no effect and ±100 for the full control effect; potency is read from the fitted curve at half-maximal effect.

| SMILES | Potency | activity change, negative = inhibition |
| --- | --- | --- |
| CN(C)c1ccc(NC(=O)CCN2C(=O)c3cccc([N+](=O)[O-])c3C2=O)cc1 | inactive | – |
| CC(=O)c1ccc(N2CCN(C(=O)c3cc(-c4ccncc4)nc4ccc(Cl)cc34)CC2)cc1 | inconclusive: 5.62 µM [inhibitor, full curve, poor fit] | – |
| N#Cc1cnc(SCC(=O)c2ccccc2)nc1N | inactive | – |
| O=C(CSc1nncn1-c1ccccc1F)NC1CCCCC1 | – | inconclusive: 16% [activator] |
| CCOC(=O)c1cc(=O)n(Cc2ccccc2C)c2ccccc12 | inconclusive: 29.1 µM [inhibitor, single point] | – |
| CN(C)S(=O)(=O)c1ccc(C(=O)NCCSc2ccccc2)cc1 | inactive | – |
| CCO/C(C)=C1/SC(=S)NC1=O | inconclusive: 31.6 µM [activator, single point] | – |
| Cc1ccc(NC(=O)c2cccs2)cc1NC(=O)c1ccc(F)cc1 | inconclusive: 1 µM [inhibitor, full curve, poor fit] | – |
| O=C(Nc1cccc(F)c1)N1CCC(n2c(=O)[nH]c3ccccc32)CC1 | inactive | – |
| COc1ccc(OCC(O)CN2C(=O)c3ccccc3C2=O)cc1 (stereo not drawn) | inconclusive: 2.82 µM [activator, single point] | – |
| COc1ccc(NC(=O)c2nnn(Cc3nc(-c4cc(OC)c(OC)c(OC)c4)oc3C)c2C)cc1 | inactive | – |
| COc1ccc(CCNc2ncnc3c2c(C)c(C)n3CCCN(C)C)cc1OC | inconclusive: 3.98 µM [inhibitor, partial curve, poor fit] | – |
| Cc1ccc(CN2C(=O)C3CCCN3c3ccc(S(=O)(=O)N4CCOCC4)cc32)cc1 (stereo not drawn) | inactive | – |
| CCS(=O)(=O)c1ccc(Sc2nncn2C)c([N+](=O)[O-])c1 | inconclusive: 35.5 µM [inhibitor, single point] | – |
| CCC(C)C(NC=C1C(=O)OC(C)(C)OC1=O)C(=O)O (stereo not drawn) | inconclusive: 0.259 µM [inhibitor, single point] | – |
| NC(=O)CCc1c[nH]c2ccccc12 | inconclusive: 35.5 µM [activator, single point] | – |
| Cc1cccc(C)c1NC(=O)CNc1ncnc2sc(C)c(C)c12 | inconclusive: 1.26 µM [inhibitor, single point] | – |
| CC(C)(C)NC(=O)c1ccc2nccnc2c1 | inactive | – |
| Cc1nn(Cc2ccc(C(=O)N3c4ccc(F)cc4CCC3C)o2)c(C)c1Br (stereo not drawn) | inconclusive: 35.5 µM [inhibitor, single point] | – |
| CCOc1ccc(NC(=O)c2cc3c(n(-c4ccc(OC)cc4)c2=O)CC(C)(C)CC3=O)cc1 | – | inconclusive: 8.33% [activator] [at 46.1 µM] |
| CCn1c(=NC(=O)CS(=O)(=O)c2ccc(F)cc2)sc2cccc(OC)c21 | inconclusive: 28.2 µM [inhibitor, single point] | – |
| Cc1cccc(N(CC(=O)NCCSCc2ccc(Cl)cc2)S(C)(=O)=O)c1C | inconclusive: 10 µM [inhibitor, single point] | – |
| CCN(CC)CCOC(=O)C1(c2ccccc2)CCCC1 | inactive | – |

| SMILES | Potency | activity change, negative = inhibition |
| --- | --- | --- |
| COc1cccc(CNC(=O)C2CCN(c3nn4c(=O)cc(C)nc4s3)CC2)c1 | inconclusive: 0.891 µM [activator, full curve, poor fit] | – |
| O=C(NCCCN1CCN(c2cccc(Cl)c2)CC1)Nc1ccccc1C(F)(F)F | inconclusive: 35.5 µM [inhibitor, single point] | – |
| CCN(CC)c1ccc([N+](=O)[O-])c2cccnc12 | inconclusive: 11.2 µM [inhibitor, partial curve, poor fit] | – |
| O=C(c1cc(-c2ccc3c(c2)OCO3)on1)N1CCN(c2ccc(F)cc2)CC1 | inactive | – |
| CSCCC(NC(=O)CCC(=O)OCC(=O)[C@@]1(O)CCC2[C@@H]3CCC4=CC(=O)C=C[C@]4(C)C3[C@@H](O)C[C@@]21C)C(=O)O (stereo partly drawn) | inactive | – |
| Cc1ccc(N(C(=O)CNC(=O)c2ccco2)C(C(=O)NCC2CCCO2)c2ccccc2)cc1 (stereo not drawn) | inconclusive: 18.3 µM [activator, single point] | – |
| COc1cccc(CN2CCCCC2C(=O)O)c1 (stereo not drawn) | inconclusive: 6.31 µM [activator, single point] | – |
| CCCCN1C(=O)C(=O)N(CC(=O)c2ccc[nH]2)C1=O | inconclusive: 5.62 µM [activator, single point] | – |
| O=C(NCCCN1CCOCC1)c1ccc2c(=O)n(-c3ccc(F)c(Cl)c3)c(=S)[nH]c2c1 | inconclusive: 39.8 µM [inhibitor, partial curve, poor fit] | – |
| Cc1ccc(NC(=O)c2cnc3ccccc3n2)cc1C | inactive | – |
| CCc1ccc(-c2nc(CSCC(=O)NC3CC3)c(C)o2)cc1 | active: 5.01 µM | – |
| COc1cc(SC)ccc1C(=O)Nc1c(Cl)cncc1Cl | inactive | – |
| COc1ccc(-c2nc(-c3ccccn3)no2)cc1 | active: 0.291 µM | – |
| COC(=O)[C@@]1(Cc2ccccc2)[C@H]2c3cc(C(=O)N4CCCC4)n(Cc4ccsc4Br)c3C[C@H]2CN1C(=O)c1ccccc1 | inconclusive: 14.6 µM [inhibitor, partial curve, poor fit] | – |
| O=C(COC(=O)c1cc(S(=O)(=O)N2CCCC2)ccc1O)Nc1ccccc1Br | inconclusive: 17.8 µM [activator, single point] | – |
| COc1ccc(C2=NN(C(=O)c3cccs3)C(O)(C(F)(F)F)C2)cc1 (stereo not drawn) | inconclusive: 12.6 µM [inhibitor, partial curve, poor fit] | – |
| O=c1[nH]c(CN2CCN(S(=O)(=O)c3ccccc3C(F)(F)F)CC2)nc2sc3c(c12)CCCC3 | inconclusive: 1.78 µM [inhibitor, full curve, poor fit] | – |
| CCC(C)(C)n1nnnc1C(c1cc2cc(C)ccc2[nH]c1=O)N1CCCC1 (stereo not drawn) | inconclusive: 20.6 µM [inhibitor, single point] | – |
| Cc1ccc(-c2nc(CSCC(=O)NCCN3CCN(Cc4ccccc4)CC3)c(C)o2)cc1 | inconclusive: 20.6 µM [inhibitor, single point] | – |
| O=C(NCCN1CCN(C(=O)c2ccc(Br)cc2)CC1)c1ccc(Br)cc1 | inactive | – |
| Cc1cc([N+](=O)[O-])c2ccccc2c1NS(=O)(=O)c1ccccc1 | inactive | – |
| O=C1CC(N2CCN(C/C=C/c3ccccc3)CC2)C(=O)N1CCc1ccccc1 (stereo not drawn) | inconclusive: 29.1 µM [inhibitor, single point] | – |
| O=c1oc(-c2ccccc2NS(=O)(=O)c2ccc3ccccc3c2)nc2ccccc12 | inconclusive: 22.4 µM [inhibitor, single point] | – |

| SMILES | Potency | activity change, negative = inhibition |
| --- | --- | --- |
| COc1ccc(-c2noc(-c3ccc(NCc4cccnc4)c([N+](=O)[O-])c3)n2)cc1 | inactive | – |
| Cc1nonc1C(=O)N/N=C/c1ccc(O)cc1 | inconclusive: 12.6 µM [activator, partial curve, poor fit] | – |
| Cc1c(O)ccc2c1OCO2 | inconclusive: 0.0042 µM [inhibitor, full curve, poor fit] | – |
| Cc1cc(C(=O)Cn2cnc3cc(F)ccc3c2=O)c(C)n1C1CC1 | inconclusive: 6.31 µM [activator, partial curve, poor fit] | – |
| CN1CCN(C(=O)c2ccc(N(Cc3ccc(Cl)cc3)S(C)(=O)=O)cc2)CC1 | inactive | – |
| O=S(=O)(c1ccccc1F)N1CCC(Oc2ccc(-n3cnnn3)cc2)CC1 | inactive | – |
| CCN(CC)C(=O)CSC1=Nc2ccccc2C2=NC(c3ccccc3)C(=O)N12 (stereo not drawn) | inconclusive: 3.66 µM [inhibitor, single point] | – |
| CCOC(=O)CNC(=O)CSc1ncnc2c1cnn2-c1ccccc1 | inactive | – |
| CCn1nnnc1SCC(=O)Nc1cc(C)on1 | inactive | – |
| CCCC(=O)N=C1SC2CS(=O)(=O)CC2N1c1ccc(-c2nc3ccc(C)cc3s2)cc1 (stereo not drawn) | inconclusive: 0.562 µM [activator, full curve, poor fit] | – |
| COCC(C)NC(=O)c1ccc(-n2nc(C(F)(F)F)cc2-c2cccs2)cc1 (stereo not drawn) | inconclusive: 0.116 µM [inhibitor, full curve, poor fit] | – |
| CN1CCN(C(=O)c2cc(COc3ccc(F)cc3Cl)on2)CC1c1ccccc1 (stereo not drawn) | inconclusive: 17.8 µM [inhibitor, partial curve, poor fit] | – |
| Cc1nnc(N/N=C\c2ccc(-c3ccccc3[N+](=O)[O-])o2)n1N | inconclusive: 23.1 µM [inhibitor, single point] | – |
| C=CCn1cc(/C=N/Nc2nc3ccccc3[nH]2)c2ccccc21 | inconclusive: 22.4 µM [inhibitor, single point] | – |
| COc1ccc(NC(=O)CCc2nnc3n(C)c(=O)c4sccc4n23)cc1Cl | inconclusive: 2.82 µM [activator, single point] | – |
| Cc1cc(NC(=O)CCC(=O)N(CC(=O)NC2CCCC2)c2cccc(F)c2)no1 | inactive | – |
| Cc1cc(CNC(=O)COc2ccccc2F)c2ccccc2n1 | inconclusive: 29.1 µM [inhibitor, single point] | – |
| CC1=C(C)CC(C(=O)N2CCN(C/C=C/c3ccccc3)CC2)C(C(=O)O)C1 (stereo not drawn) | inconclusive: 35.5 µM [activator, partial curve, poor fit] | – |
| CCn1cc(C(=O)NCCCN(CC(C)C)CC(C)C)c(=O)c2cc(S(=O)(=O)N(C)C3CCCCC3)ccc21 | inactive | – |
| Cc1ccc(N2C(N)=C(C#N)C(c3ccsc3)C3=C2CC(C)(C)CC3=O)cc1 (stereo not drawn) | inconclusive: 35.5 µM [inhibitor, single point] | – |
| Cc1cc(C)n2nc(-c3ccc(F)cc3)nc2n1 | inactive | – |
| Cc1csc(Nc2ccc(Cl)cc2)n1 | inconclusive: 7.08 µM [activator, full curve, poor fit] | – |

Compounds listed so far that have a cyano group:

| SMILES | Potency | activity change, negative = inhibition |
| --- | --- | --- |
| N#Cc1cnc(SCC(=O)c2ccccc2)nc1N | inactive | – |
| Cc1ccc(N2C(N)=C(C#N)C(c3ccsc3)C3=C2CC(C)(C)CC3=O)cc1 (stereo not drawn) | inconclusive: 35.5 µM [inhibitor, single point] | – |
